Measurements: the supplement of paper PMC10849652
This is one part of the list.

Chains of the proteins cited; added tags and fusions are not shown. Lines headed by an entry give the natural chain unless they say otherwise; changes in a name come on top.
UniProt Q5JSD2: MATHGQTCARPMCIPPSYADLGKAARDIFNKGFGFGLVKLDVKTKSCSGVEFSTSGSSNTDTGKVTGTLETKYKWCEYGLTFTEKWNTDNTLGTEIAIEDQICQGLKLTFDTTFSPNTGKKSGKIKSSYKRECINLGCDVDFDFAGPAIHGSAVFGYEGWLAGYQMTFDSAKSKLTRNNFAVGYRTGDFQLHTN
UniProt Q9NZC7: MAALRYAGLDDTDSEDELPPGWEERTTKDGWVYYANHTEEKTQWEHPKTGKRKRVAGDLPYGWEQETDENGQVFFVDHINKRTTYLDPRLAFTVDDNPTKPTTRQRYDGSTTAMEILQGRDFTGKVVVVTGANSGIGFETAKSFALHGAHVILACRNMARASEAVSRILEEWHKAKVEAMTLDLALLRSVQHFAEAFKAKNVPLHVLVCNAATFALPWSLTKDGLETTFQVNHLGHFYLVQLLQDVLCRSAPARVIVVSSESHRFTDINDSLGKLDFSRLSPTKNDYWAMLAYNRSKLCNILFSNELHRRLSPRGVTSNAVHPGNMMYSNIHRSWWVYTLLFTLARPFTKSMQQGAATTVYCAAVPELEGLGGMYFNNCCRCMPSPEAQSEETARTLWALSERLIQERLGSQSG
UniProt P57081: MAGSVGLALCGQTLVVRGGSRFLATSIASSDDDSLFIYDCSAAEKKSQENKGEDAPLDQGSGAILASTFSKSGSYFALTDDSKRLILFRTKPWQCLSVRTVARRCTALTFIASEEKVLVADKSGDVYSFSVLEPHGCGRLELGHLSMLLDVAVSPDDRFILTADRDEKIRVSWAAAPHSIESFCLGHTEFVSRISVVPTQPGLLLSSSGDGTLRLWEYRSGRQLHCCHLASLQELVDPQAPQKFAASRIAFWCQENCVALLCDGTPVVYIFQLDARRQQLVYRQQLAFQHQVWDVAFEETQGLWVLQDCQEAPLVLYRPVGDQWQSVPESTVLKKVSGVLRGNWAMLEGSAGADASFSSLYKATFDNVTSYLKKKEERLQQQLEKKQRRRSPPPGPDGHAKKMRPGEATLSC
UniProt P09327: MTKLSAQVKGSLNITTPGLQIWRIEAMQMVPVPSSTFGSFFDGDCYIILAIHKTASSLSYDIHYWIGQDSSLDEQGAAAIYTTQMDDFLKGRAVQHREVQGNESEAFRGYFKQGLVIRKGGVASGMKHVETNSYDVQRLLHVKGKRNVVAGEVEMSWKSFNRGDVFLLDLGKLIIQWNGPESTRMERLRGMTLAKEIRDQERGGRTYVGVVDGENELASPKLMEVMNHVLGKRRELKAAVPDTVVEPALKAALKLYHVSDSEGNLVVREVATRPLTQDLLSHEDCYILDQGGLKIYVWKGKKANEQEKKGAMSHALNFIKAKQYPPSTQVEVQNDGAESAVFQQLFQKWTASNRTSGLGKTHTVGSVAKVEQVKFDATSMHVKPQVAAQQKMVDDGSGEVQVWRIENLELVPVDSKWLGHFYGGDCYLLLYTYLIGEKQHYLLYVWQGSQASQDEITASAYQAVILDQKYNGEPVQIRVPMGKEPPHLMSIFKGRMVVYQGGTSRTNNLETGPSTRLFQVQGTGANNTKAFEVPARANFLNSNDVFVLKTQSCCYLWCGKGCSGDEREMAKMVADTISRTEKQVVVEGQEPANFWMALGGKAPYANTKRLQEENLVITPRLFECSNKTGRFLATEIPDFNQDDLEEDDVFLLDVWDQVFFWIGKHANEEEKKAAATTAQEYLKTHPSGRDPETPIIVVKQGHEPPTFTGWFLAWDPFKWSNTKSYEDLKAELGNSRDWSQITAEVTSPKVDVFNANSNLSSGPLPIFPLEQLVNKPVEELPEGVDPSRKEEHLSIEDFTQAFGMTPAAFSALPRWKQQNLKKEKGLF
UniProt Q9Y4P8: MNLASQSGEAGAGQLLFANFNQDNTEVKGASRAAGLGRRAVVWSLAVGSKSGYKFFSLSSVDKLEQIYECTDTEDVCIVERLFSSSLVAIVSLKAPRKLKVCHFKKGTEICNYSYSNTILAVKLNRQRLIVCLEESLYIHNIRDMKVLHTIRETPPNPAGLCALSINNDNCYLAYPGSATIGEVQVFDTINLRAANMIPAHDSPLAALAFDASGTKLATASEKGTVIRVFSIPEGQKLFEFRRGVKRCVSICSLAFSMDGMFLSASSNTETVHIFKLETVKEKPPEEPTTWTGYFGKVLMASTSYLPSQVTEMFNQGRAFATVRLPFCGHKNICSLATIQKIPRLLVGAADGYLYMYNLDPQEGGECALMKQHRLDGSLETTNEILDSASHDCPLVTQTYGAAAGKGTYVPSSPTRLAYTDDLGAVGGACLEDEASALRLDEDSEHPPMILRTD
UniProt A5D8V6: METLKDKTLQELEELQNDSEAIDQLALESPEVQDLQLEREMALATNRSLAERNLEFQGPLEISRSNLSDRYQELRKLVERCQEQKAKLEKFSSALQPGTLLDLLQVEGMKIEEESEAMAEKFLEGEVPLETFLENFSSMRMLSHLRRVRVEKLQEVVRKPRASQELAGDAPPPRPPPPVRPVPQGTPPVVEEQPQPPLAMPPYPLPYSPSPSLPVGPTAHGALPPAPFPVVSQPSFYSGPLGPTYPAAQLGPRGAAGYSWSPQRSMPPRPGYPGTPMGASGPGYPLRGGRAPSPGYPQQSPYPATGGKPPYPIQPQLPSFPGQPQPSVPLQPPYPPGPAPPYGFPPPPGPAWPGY
UniProt Q92558: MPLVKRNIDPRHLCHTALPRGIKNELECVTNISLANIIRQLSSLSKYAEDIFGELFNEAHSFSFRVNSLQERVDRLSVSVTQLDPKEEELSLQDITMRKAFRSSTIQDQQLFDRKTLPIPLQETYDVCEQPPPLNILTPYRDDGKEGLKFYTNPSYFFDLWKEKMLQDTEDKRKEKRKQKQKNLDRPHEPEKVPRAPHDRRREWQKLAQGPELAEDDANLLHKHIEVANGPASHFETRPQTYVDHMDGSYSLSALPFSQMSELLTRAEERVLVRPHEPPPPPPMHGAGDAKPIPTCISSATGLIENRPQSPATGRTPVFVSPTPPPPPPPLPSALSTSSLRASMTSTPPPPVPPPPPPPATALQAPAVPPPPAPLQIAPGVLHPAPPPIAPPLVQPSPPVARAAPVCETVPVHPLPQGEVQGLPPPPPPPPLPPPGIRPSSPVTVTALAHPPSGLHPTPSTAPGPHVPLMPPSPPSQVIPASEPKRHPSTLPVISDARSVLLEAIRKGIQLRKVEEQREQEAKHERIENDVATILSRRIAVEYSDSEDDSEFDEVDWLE
UniProt Q69YN4: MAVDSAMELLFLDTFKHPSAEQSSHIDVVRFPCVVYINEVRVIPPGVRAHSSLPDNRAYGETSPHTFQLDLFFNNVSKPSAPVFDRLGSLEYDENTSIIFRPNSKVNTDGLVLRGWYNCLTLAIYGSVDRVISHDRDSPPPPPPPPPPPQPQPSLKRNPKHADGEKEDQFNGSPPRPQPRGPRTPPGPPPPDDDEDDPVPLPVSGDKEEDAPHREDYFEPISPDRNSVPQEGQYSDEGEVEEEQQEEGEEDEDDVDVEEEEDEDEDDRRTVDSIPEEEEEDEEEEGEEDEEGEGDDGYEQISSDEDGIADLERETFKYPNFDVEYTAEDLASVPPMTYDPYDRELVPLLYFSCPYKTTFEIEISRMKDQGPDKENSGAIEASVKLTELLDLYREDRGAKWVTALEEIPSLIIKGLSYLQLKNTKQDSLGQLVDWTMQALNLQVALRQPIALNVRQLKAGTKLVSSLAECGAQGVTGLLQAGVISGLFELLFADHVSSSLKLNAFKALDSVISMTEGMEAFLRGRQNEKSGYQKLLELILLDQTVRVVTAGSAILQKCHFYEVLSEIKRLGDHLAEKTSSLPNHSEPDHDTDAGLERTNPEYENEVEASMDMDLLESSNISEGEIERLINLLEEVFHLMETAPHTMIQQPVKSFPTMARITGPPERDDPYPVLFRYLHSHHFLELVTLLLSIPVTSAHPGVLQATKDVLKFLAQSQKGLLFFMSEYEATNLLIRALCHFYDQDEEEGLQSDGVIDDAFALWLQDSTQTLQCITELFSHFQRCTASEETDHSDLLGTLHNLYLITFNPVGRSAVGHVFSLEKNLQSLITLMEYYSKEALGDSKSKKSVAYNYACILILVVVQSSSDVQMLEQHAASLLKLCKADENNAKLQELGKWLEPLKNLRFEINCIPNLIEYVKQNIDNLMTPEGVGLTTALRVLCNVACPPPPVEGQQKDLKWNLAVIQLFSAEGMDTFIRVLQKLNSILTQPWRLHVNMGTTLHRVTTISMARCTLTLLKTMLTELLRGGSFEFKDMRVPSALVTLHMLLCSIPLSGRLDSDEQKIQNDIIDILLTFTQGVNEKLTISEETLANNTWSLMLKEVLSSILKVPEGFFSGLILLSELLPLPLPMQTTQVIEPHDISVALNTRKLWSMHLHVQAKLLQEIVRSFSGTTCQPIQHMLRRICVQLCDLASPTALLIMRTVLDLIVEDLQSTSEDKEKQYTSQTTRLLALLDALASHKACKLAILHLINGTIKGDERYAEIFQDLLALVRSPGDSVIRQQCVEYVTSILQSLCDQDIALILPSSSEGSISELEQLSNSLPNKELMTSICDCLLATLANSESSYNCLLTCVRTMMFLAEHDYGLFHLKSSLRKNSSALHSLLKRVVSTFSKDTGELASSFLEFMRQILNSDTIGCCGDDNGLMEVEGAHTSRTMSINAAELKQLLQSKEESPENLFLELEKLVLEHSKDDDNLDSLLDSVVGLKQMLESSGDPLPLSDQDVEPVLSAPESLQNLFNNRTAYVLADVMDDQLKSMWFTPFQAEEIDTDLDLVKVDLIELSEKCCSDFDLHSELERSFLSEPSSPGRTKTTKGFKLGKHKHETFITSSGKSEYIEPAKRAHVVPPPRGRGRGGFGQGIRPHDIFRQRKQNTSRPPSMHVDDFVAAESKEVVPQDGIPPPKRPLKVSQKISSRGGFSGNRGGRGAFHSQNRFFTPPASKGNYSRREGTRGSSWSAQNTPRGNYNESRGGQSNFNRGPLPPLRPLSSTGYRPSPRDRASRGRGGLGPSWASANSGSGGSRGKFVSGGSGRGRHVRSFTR
UniProt Q3ZAQ7: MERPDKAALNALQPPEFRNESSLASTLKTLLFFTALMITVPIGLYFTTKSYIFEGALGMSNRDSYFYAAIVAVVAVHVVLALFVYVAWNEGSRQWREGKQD
UniProt Q502W6: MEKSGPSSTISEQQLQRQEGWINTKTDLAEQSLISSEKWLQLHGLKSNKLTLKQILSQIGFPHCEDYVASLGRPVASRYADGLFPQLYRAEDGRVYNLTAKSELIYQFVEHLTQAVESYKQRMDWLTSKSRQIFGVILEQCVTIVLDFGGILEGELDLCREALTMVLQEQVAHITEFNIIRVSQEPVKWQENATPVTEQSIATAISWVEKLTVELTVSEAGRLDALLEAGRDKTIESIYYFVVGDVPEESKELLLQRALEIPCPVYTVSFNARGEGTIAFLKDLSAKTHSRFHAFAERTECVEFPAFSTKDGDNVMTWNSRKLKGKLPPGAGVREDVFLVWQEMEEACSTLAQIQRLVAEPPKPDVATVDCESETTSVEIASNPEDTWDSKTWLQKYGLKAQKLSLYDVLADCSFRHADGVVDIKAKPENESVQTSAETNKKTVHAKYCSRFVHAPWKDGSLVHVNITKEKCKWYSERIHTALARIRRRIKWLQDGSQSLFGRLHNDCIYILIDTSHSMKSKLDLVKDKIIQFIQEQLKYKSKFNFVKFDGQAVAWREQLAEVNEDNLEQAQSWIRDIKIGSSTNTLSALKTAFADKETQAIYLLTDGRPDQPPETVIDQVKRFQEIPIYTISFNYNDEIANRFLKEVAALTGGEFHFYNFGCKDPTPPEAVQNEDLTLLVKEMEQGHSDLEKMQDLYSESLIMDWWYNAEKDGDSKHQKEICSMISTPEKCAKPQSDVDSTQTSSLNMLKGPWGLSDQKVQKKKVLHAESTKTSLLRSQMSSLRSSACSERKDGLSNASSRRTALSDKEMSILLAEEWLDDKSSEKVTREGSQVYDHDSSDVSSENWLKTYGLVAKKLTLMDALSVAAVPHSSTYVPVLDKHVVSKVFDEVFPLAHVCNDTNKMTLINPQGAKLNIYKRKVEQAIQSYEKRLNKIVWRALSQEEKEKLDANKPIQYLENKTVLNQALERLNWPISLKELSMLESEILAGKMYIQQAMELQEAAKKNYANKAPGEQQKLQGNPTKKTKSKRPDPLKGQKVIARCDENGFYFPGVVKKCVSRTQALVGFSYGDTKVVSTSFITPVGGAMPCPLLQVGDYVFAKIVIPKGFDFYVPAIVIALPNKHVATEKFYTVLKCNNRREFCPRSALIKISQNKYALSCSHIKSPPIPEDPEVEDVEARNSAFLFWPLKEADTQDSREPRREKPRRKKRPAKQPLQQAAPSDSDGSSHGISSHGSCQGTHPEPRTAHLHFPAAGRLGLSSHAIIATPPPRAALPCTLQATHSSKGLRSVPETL

What follows are targets tested with Nc1ccccc1NC(=O)c1ccc(CNC(=O)OCc2cccnc2)cc1 [entinostat] (assay: log2 fold change, soluble protein after heating vs DMSO (PISA); higher = thermal stabilisation; K562 cells, 10 uM, 30 min; active = over 0.2 and 3.5 SD of the protein, either way, in both replicates (recomputed)).
In short: (§1)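 Values are thermal stability changes relative to control samples and are taken from duplicates. They are stated as log2 fold changes. Before quantification by TMTpro 16plex LC-MS/MS with equalised channel sums, K562 cells at 2×10^6 cells/mL were treated with 10 μM compound for 30 min, heated in aliquots for 3 min across 48°C-58°C, pooled, extracted in PBS with 0.5% NP-40 at 4°C, and centrifuged at 21,000xg for 90 min to give the soluble supernatant.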

| Target | log2 fold change |
| --- | --- |
| VDAC2 (UniProt Q5JSD2) | inactive: -0.106 |
| VLDLR (UniProt P98155) | inactive: -0.132 |
| WARS1 (UniProt G3V3P2) | inactive: -0.074 |
| WARS1 (UniProt G3V5U1) | inactive: -0.218 |
| WWOX (UniProt Q9NZC7) | inactive: -0.098 |
| WDR46, A0A0G2JJL1 | inactive: -0.113 |
| WDR4 isoform 3 (UniProt P57081) | inactive: -0.02 |

The targets below were run with O=C(CCCCCCC(=O)Nc1ccccc1)NO [vorinostat] in the same assay as above.
In short: as §1

| Target | log2 fold change |
| --- | --- |
| VIL1 (UniProt P09327) | inactive: 0.164 |
| VDAC2 (UniProt Q5JSD2) | inactive: -0.14 |
| VLDLR (UniProt P98155) | inactive: -0.134 |
| WIPI2 isoform 6 (UniProt Q9Y4P8) | inactive: 0.124 |
| VPS37C (UniProt A5D8V6) | inactive: -0.11 |
| WASF1 (UniProt Q92558) | inactive: -0.009 |
| VIRMA (UniProt Q69YN4) | inactive: -0.24 |
| VMA21 isoform 2 (UniProt Q3ZAQ7) | inactive: 0.07 |
| WDR4 isoform 3 (UniProt P57081) | inactive: -0.118 |
| WAC (UniProt Q9BTA9) | inactive: -0.163 |
| VWA3B isoform 6 (UniProt Q502W6) | inactive: 0.076 |
